According to PubChem BioAssay AID1259415 (National Center for Advancing Translational Sciences (NCATS), 2018):
The campaign covered roughly 410,000 compounds. About 18,000 (4.4%) were called active. The shares of active, inactive and inconclusive entries below differ from those in the screen. No stated cut-off is given here; in the data, active means activity change below about -60%; inconclusive means no clear call, values can overlap the other calls; inactive means above about -39%.

Assay: qHTS Assay for inhibitors of the human cytomegalovirus (HCMV)
Details: HFF cells, HCMV-luciferase reporter, 72 h; at 57.5 µM; hits give low values
Procedure, shortened: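 After 16 h attachment at 37C, HFF cells received test compound and HCMV-luciferase (1 PFU/cell); reporter luminescence read 72 h later, data normalized against buffer-only and known inhibitor Salinomycin.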
On the % scale 0 is the no-effect control and ±100 the full control effect.

Compound	activity change, negative = inhibition
CC(C)c1nnc(NC(=O)CCC(=O)N2CCN(c3cccc(Cl)c3)CC2)s1	inconclusive: -41.2%
CCCc1cc(=O)[nH]c2nnc(SCC(=O)Nc3cccc(C)c3)n12	inconclusive: -52.1%
CCCCCc1cc(=O)oc2c(C(CCN(CC)CC)c3cc(OC)c(OC)c(OC)c3)c(OC)cc(OC)c12 (configuration not stated)	inconclusive: -55.4%
CCOc1ccc(C(=O)Nc2cc(C)ccn2)cc1	active: -64.8%
COC1=C(C)C(O)=C(C(=O)/C=C/c2ccccc2)C(=O)C1(C)C	active: -77.4%
O=C(COc1ccccc1)NCC(=O)N/N=C/c1cccs1	inconclusive: -45.6%
Brc1ccc(Oc2nnnn2-c2ccccc2)cc1	inconclusive: -47.5%
CCCCCc1c(-c2ccc(OC)cc2)ncn1CCc1ccccc1OC	active: -94.4%
Cc1ccc(-c2nnn(CC(=O)N(c3ccccc3)C(C(=O)NCC3CCCO3)c3ccc(Cl)cc3)n2)cc1 (configuration not stated)	inactive: -5.01%
O=C(c1ccc([N+](=O)[O-])s1)N1CCN(c2ccccn2)CC1	active: -61.1%
COC(=O)c1cccc(NC(=O)Nc2ccc(Cl)cc2)c1	active: -67%
COC(=O)C1=C(C)N(Cc2cccc(C(F)(F)F)c2)C(=NCc2ccc(OC)cc2)NC1c1cccc(C(F)(F)F)c1 (configuration not stated)	active: -98.9%
CC1(C)CC(=O)C(C=NCC2CCN(C(=S)Nc3cccc(Cl)c3)CC2)=C(O)C1	inconclusive: -42.2%
CCc1cc(C(=O)N2CCCC(CCC(=O)N3CCN(c4ccccn4)CC3)C2)no1 (configuration not stated)	inconclusive: -47.1%
CCCc1cc(=O)[nH]c2nnc(SCCC(C)C)n12	inconclusive: -44.9%
COC(=O)c1c(NC(=O)COc2ccc(OC)cc2)sc2c1CCC(C)C2 (configuration not stated)	inactive: -9.4%
Nc1nnnn1/N=C/c1ccccn1	inactive: -22%
COCCCNC(=S)N1CCN(c2nc(-c3ccc(F)cc3)cs2)CC1	active: -84.9%
COc1ccc(S(=O)(=O)N(C)C)cc1NC(=O)COC(=O)c1nc2nccc(C)n2n1	inactive: 4.05%

Looked up one by one from above (4):
Compound	activity change, negative = inhibition
COC1=C(C)C(O)=C(C(=O)/C=C/c2ccccc2)C(=O)C1(C)C	active: -77.4%
O=C(c1ccc([N+](=O)[O-])s1)N1CCN(c2ccccn2)CC1	active: -61.1%
CCCCCc1cc(=O)oc2c(C(CCN(CC)CC)c3cc(OC)c(OC)c(OC)c3)c(OC)cc(OC)c12 (configuration not stated)	inconclusive: -55.4%
CC1(C)CC(=O)C(C=NCC2CCN(C(=S)Nc3cccc(Cl)c3)CC2)=C(O)C1	inconclusive: -42.2%

Next part:

Compound	activity change, negative = inhibition
COc1ccc(Cl)cc1C(=O)Nc1ccc(S(N)(=O)=O)cc1	inconclusive: -48.8%
CCC(=O)N1CCc2cc(S(=O)(=O)NC(Cc3ccccc3)C(=O)NCc3ccc(F)cc3)ccc21 (configuration not stated)	inactive: -3.17%
CC1=C(Nc2ccc(C(=O)O)cc2)C(=O)c2ccccc2C1=O	inactive: 75.7%
COc1ccc(/C=N/NC(=O)c2nc(-c3ccccc3)cc(-c3ccccc3)n2)cc1	inconclusive: -57%
Cc1ccc(C(=O)COC(=O)c2cn3ccccc3n2)cc1	inactive: 13%
O=P(O)(CCc1ccccc1)CN1CCCCC1	inconclusive: -50.3%
COc1ccc(-n2nc3cc(C)c(NC(=O)c4ccc(C)cc4C)cc3n2)cc1Cl	inconclusive: -42.7%
COC(=O)CC(c1ccc(F)cc1)n1c(C)ccc1C (configuration not stated)	inconclusive: -47.6%
Cc1sc2ncnc(NCC(O)c3ccccc3)c2c1C (configuration not stated)	active: -73.8%
CC(=O)N1CCCc2cc(S(=O)(=O)N(CC(C)C)CC(C)C)ccc21	inconclusive: -40.1%
COc1cc(OC)cc(-c2cc3c(Nc4cccc(O)c4)nccc3[nH]2)c1	inactive: 24.7%
CC(=NCc1cccnc1)C1=C(O)c2ccccc2C1=O	inconclusive: -45.8%
CC1(C)NC(=O)N(CCOCCSc2ccccc2)C1=O	inactive: 9.92%
CCCCN(CC)c1nc(N)c(C#N)c(CC#N)c1C#N	inconclusive: -54.3%
COCCN1C(=O)/C(=C/c2ccc(Oc3ccc([N+](=O)[O-])cn3)c(OC)c2)SC1=Nc1ccccc1	inconclusive: -53.6%
COc1cccc(CNC(=O)CCC2CCCN(C(=O)c3cc4ccccc4o3)C2)c1 (configuration not stated)	inactive: 10.4%
CN(C)S(=O)(=O)c1cccc(NC(=O)CCSc2ccc(Cl)cc2)c1	inconclusive: -59.3%
O=C(Cn1c(=O)oc2cc(S(=O)(=O)NCc3ccccc3)ccc21)N(CCO)Cc1ccccc1	inconclusive: 0%
O=C(Cc1ccc([N+](=O)[O-])cc1)Nc1cccc(C(=O)N2CCCC2)c1	inactive: -14.8%

Compound	activity change, negative = inhibition
C=CCC1(CC=C)CCCN1C(=O)c1cc(COc2ccc(C)nc2)on1	active: -75.6%
COc1ccc(OC)c2sc(NC(=O)CCS(=O)(=O)c3ccccc3)nc12	inactive: 19.9%
C[N+]1(CC(=O)OC2CCCCCCCCCCC2)CCCC1	inconclusive: -54.1%
C/C(=N\Nc1nc(-c2ccccc2)cs1)c1cccs1	inactive: 38.1%
Cc1ccc(-c2nnc(C)c(N3CCCC3)n2)cc1	inconclusive: -55.9%
N#Cc1c(NC(=O)CSc2ncc(-c3ccccc3)n2CC2CCCO2)sc2c1CCCC2 (configuration not stated)	active: -61.8%
CCc1cc2c(SCC(=O)NCC3CCCO3)ncnc2s1 (configuration not stated)	inactive: 0%
COc1ccc(C(=O)C2CCCN(Cc3cccn3-c3ccc(Cl)cn3)C2)c(OC)c1 (configuration not stated)	inconclusive: -49%
Cc1nn(-c2ccccc2)c(NC(=O)c2cccs2)c(-c2ccc(Cl)cc2)c1=O	inconclusive: -51.3%
O=C(Nc1nnc(C(F)(F)F)s1)c1ccc(Br)s1	inconclusive: -56.3%
COc1c2c(c(OC)c3c1c(=O)c1ccccc1n3C)OCO2	inactive: 0%
COc1ccc(CC(=O)NCCc2sc3nc(-c4ccc(OC)cc4)nn3c2C)cc1	inconclusive: -41.2%
O=C(Nc1ccc(S(=O)(=O)Nc2ccc(F)cc2)cc1)c1ccc(CN2CCOCC2)cc1	active: -64.6%
CCOC(=O)c1c(C)oc2c(F)c(F)c(F)c(F)c2c1=O	active: -104%
CCOc1ccc(NC(=O)c2ccc(CN3CCc4ccccc4C3)cc2)cc1	inconclusive: -49.2%
CCc1ccc(NC(=O)CC2C(=O)N(c3cccc(C)c3)C(=O)N2CCC(C)C)cc1 (configuration not stated)	inactive: -14.1%
COc1cccc(/C=C2\SC(=S)N(CCCC(=O)N3CCOCC3)C2=O)c1	inconclusive: -56%
Cc1ccc(CNC(=O)c2ccc3c(c2)S(=O)(=O)c2ccccc2C3=O)cc1	inconclusive: -56.3%
CCOC(=O)C1=C(C)N=c2s/c(=C\c3ccncc3)c(=O)n2C1c1ccc2c(c1)OCO2 (configuration not stated)	inactive: -13.4%
